These are yes or no findings as the source states them, for the method shown. In cells and extracts the contact can be indirect. Some results given as binding are weak or reduced against the parent protein; the word gives no strength. For some of these results: Where a sequence is shown, tags or fusion partners need not be part of it.
Columns and labels:
3xFLAG-ATG3 ΔLIR (human) = 3xFLAG-ATG3 ΔLIR (human) (UniProt Q9NT62); assay: co-IP
[1] = molecular target: 3xFLAG-ATG3 W107A (human) (UniProt Q9NT62); assay: co-IP
[2] = molecular target: 3xFLAG-ATG3 C264A (human) (UniProt Q9NT62); assay: co-IP
[3] = molecular target: 3xFLAG-ATG3 wild-type (human) (UniProt Q9NT62); assay: co-IP
3xFLAG-ATG7 = molecular target: T1, 3xFLAG-ATG7 (UniProt O95352); assay: pull-down
T1 sequence: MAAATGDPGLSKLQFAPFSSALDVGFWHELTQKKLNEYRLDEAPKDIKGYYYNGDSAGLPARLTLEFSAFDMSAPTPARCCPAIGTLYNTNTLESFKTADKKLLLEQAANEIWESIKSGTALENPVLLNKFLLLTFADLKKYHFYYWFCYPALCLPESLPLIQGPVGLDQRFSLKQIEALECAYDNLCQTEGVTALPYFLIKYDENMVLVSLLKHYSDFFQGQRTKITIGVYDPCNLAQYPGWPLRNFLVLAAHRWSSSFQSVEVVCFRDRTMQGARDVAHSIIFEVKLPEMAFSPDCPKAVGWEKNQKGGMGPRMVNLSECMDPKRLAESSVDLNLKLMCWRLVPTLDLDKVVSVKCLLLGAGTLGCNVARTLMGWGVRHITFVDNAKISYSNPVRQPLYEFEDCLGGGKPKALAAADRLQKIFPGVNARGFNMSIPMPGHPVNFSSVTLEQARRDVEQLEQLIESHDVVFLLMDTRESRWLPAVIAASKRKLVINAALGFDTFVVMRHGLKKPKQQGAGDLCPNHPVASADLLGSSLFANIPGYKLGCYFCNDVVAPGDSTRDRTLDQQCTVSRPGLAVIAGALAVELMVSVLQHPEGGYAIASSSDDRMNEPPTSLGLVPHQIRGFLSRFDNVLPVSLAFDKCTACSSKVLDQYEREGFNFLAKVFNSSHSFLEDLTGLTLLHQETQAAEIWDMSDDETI

Sequences of proteins named here, by UniProt entry; tags and fusion partners are left off. A change or cut given only in a name is not applied to a line headed by its entry.
UniProt Q9H1Y0: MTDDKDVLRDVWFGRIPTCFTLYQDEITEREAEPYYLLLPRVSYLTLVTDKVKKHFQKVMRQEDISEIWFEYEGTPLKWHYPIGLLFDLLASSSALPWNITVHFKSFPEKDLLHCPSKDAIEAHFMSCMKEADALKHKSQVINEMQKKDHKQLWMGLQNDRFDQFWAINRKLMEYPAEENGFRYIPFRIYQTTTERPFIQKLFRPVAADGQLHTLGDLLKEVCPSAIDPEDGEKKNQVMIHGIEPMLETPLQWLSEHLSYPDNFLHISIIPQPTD
UniProt O94817: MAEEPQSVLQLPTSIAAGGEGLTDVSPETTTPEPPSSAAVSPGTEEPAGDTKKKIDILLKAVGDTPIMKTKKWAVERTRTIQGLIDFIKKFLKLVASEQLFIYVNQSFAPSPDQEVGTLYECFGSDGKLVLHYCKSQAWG
UniProt Q676U5: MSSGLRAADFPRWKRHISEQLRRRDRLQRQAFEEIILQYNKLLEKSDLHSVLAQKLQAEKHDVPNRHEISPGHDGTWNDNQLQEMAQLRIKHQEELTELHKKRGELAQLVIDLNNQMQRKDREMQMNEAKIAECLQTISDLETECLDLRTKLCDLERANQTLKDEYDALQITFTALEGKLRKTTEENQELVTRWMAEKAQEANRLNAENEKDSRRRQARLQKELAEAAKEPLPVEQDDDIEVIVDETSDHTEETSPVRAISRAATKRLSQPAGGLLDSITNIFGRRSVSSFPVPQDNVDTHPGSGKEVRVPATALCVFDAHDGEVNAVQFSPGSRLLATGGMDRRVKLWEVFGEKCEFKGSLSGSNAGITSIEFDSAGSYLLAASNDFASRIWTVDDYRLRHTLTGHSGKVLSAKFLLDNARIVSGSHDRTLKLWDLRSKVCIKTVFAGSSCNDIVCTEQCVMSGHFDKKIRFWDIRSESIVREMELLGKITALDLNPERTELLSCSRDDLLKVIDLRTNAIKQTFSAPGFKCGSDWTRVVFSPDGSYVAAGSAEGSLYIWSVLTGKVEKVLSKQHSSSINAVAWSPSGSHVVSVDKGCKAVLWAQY

Row | Substance | binding (3xFLAG-ATG3 ΔLIR (human)) | binding [1] | binding [2] | binding [3] | binding (3xFLAG-ATG7)
1 | ATG5–ATG12 complex (from UniProt Q9H1Y0;O94817) | binds | binds | binds | binds | 
2 | ATG3 wild-type, recombinant (from UniProt Q9NT62 1-314) (enzyme) |  |  |  |  | binds
3 | ATG16L1 (from UniProt Q676U5 1-607) | binds | binds | binds | binds | 
4 | ATG3 ΔLIR in wild-type ATG3 (all cysteines retained), recombinant (from UniProt Q9NT62 1-314) (enzyme) |  |  |  |  | binds

Source: paper doi:10.1101/2022.08.02.502437
